# Measurements taken from PubChem BioAssay AID2685 (National Center for Advancing Translational Sciences (NCATS), 2010).
# The list shows a part of the results. The main result of the screen is listed elsewhere. These columns were measured beside it and carry no call. The list favours compounds with an active or inconclusive main result. The note in brackets gives the kind of curve behind each potency; many fits are weak.
# Assay: qHTS Assay for Lipid Storage Modulators in Drosophila S3 Cells;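 for cell number change: cells counted by Cell Tracker Red CMTPX staining in the red channel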
# Details: BODIPY lipid droplet fluorescence, 18-24 h; for cell number change: measured here: cell count max response, cells fed with added oleic acid
# Method in brief: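 Drosophila S3 cells loaded with oleic acid (400 uM, as added) and compounds at several concentrations; lipid droplets imaged by 488-nm laser-scanning cytometry, 500–530 nm intensity and object ratio to cell channel. Percent activity normalized to 20 uM Triacsin C.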
# [1] = measured here: cell number channel AC50, cells fed with added oleic acid
# [2] = measured here: lipid fluorescence (Fed channel) AC50, cells fed with added oleic acid
Compound,AC50 [1],AC50 [2],cell number change [%]
Cc1ccccc1-n1c(C)nnc1SCC(=O)N1CCc2ccccc2C1,"6.51 µM [rising, single point]","0.461 µM [falling, full curve, poor fit]",
CC1(C)Cc2c(cnn2-c2ccc(F)cc2)C(NC(=O)C(C)(C)O)C1 (stereo not given),,"0.116 µM [rising, full curve, poor fit]",3.79
Cc1nn(C)c(=O)n1-c1ccc(Oc2ccccc2)cc1,,"0.231 µM [rising, full curve]",
COc1cc(/C=C/C(=O)OCC(=O)N2CCN(S(=O)(=O)c3ccc(C)cc3C)CC2)ccc1O,"4.11 µM [rising, partial curve]","3.26 µM [rising, partial curve]",-32.3
CCOCc1nnc(NC(=O)c2cc(OC)c(OC)cc2[N+](=O)[O-])s1,,"0.562 µM [falling, partial curve, poor fit]",-58.8
CC(=O)c1cccc(NC(=O)CSc2nc(=O)n(CCCN3CCOCC3)c3c2CCC3)c1,"0.411 µM [rising, full curve, poor fit]",,34.3
CCc1nc(Nc2ccc(OC)c(OC)c2)c2nnn(Cc3ccccc3Cl)c2n1,,"14.6 µM [falling, single point]",-28.6
CCNc1nc(NCC)nc(Oc2ccc(N)cc2)n1,,,-6.51
CC1CCCC(NC(=O)COC(=O)c2ccc(N(C)C)cc2)C1C (stereo not given),"1.84 µM [rising, full curve]","2.06 µM [rising, partial curve]",37.9
CCCc1cc(=O)oc2cc(C)cc(OCC(=O)NC(Cc3c[nH]c4ccc(O)cc34)C(=O)O)c12 (stereo not given),,,14.2
CN(C)S(=O)(=O)N1CCN(C(=O)c2ccc3c(c2)OCO3)CC1,,"18.4 µM [rising, partial curve]",13
CC1(C(=O)O)CCC(C(=O)Nc2ccc(Cl)c(Cl)c2)C1(C)C (stereo not given),,"29.1 µM [rising, single point]",
O=c1c2ccccc2[nH]c2ccccc12,"29.1 µM [falling, single point]","2.59 µM [rising, partial curve]",-35.6
COc1ccccc1NC(=O)CC1C(=O)NCCN1C(=O)Nc1ccccc1 (stereo not given),,,-4.92
COC(=O)c1[nH]c2ccc(C)cc2c1NC(=O)C1=COCCO1,,,28.4
O=C(CSc1nnc2ccc(-c3cccnc3)nn12)Nc1ccccc1,,"4.11 µM [rising, full curve, poor fit]",23.4
CC(C)CCN(Cc1ccco1)S(=O)(=O)c1ccc(-c2ccc(=O)[nH]n2)s1,,"29.1 µM [rising, single point]",-2.14
O=C(Nc1ccc(Br)cc1)c1cc(S(=O)(=O)Nc2ccccn2)ccc1Cl,,"5.17 µM [rising, partial curve, poor fit]",18.3
Cc1cc([N+](=O)[O-])nn1Cc1ccc(C(=O)N/N=C/c2ccc(O)cc2O)cc1,"0.731 µM [rising, full curve]",,42.2
COc1cccc(OC)c1OC(=O)/C=C/c1ccc(C)o1,,,16.9
CCN(CC(=O)NC1CCS(=O)(=O)C1)c1ccc([N+](=O)[O-])cc1C#N (stereo not given),,"8.2 µM [rising, partial curve, poor fit]",18.6

Compound,AC50 [1],AC50 [2],cell number change [%]
COc1ccc(OC)c(N(/C(N)=N/c2nc(C)cc(C)n2)S(=O)(=O)c2ccc(NC(C)=O)cc2)c1,,,13.2
C/C(=N\NC(=O)c1cccc([N+](=O)[O-])c1)c1ccncc1,"0.731 µM [rising, single point]",,
COc1ccccc1OCCn1cc(C(=O)C(C)C)c2ccccc21,"4.11 µM [rising, full curve, poor fit]","0.651 µM [falling, single point]",26.4
O=C(CCc1ccccc1)NNC(=O)c1ccccc1C(=O)O,"16.4 µM [rising, single point]","7.31 µM [rising, partial curve]",33.8
Nc1nc(CN2CCN(c3ccccc3F)CC2)nc(Nc2ccc3c(c2)OCCO3)n1,"1.3 µM [falling, single point]",,-32.3
COC(=O)c1ccc(CSc2cc(C)c3cccc(C)c3n2)o1,,"29.1 µM [rising, single point]",39.1
O=C(NC1CCCC1)C1c2ccccc2C(=O)N1C1CCCCC1 (stereo not given),,"14.6 µM [falling, partial curve, poor fit]",-16.9
COc1ccc(S(=O)(=O)N2CC=C(C(=O)Nc3ccc(NC(C)=O)cc3)CC2)cc1,"0.184 µM [rising, full curve, poor fit]",,15.1
Fc1cccc(Cl)c1Cn1nnc(-c2ccc(N3CCOCC3)cc2)n1,,"29.1 µM [rising, single point]",
CN1CCN(S(=O)(=O)c2ccc(Nc3ccc(F)cc3)nc2)CC1,"16.4 µM [rising, single point]",,50.6
CCCN1CCN(CCCNC(=O)Cn2cc3c(n2)CCCC3)CC1,,"13 µM [falling, partial curve, poor fit]",6.62
CCNC(=O)COC(=O)c1cccc(Br)c1,,"0.411 µM [rising, full curve, poor fit]",5.3
O=C(Cn1ncc2c3ccccc3n(Cc3cccc(Cl)c3)c2c1=O)NCC1CCCO1 (stereo not given),,"6.51 µM [rising, single point]",
O=S(=O)(c1cccs1)N1CCCc2ccccc21,"29.1 µM [rising, single point]",,66.6
Cn1c(=S)ccc2ccccc21,,,2.08
CN(C)/C=C1/Nc2ccccc2C1=O,,"6.51 µM [falling, single point]",7.29
CCCc1cc(C(=O)NCC(C)C)no1,,"0.82 µM [falling, full curve, poor fit]",-3.57
CCOC(=O)N1CCN(C2CCCN(C(=O)c3ccccc3C(F)(F)F)C2)CC1 (stereo not given),,,-21
COc1ccc(/C=N/NC(=O)c2cc3c(OC)ccc(OC)c3[nH]2)cc1O,"29.1 µM [falling, single point]","20.6 µM [falling, single point]",-70.6
Cc1cc(C)nc(SCc2nnc(SCC(=O)N3CCOCC3)o2)n1,,"1.16 µM [rising, partial curve]",4.87
Cc1ccc(Cl)cc1N1CCN(S(=O)(=O)c2cnc[nH]2)CC1,,"7.31 µM [rising, partial curve]",-4.43

Compound,AC50 [1],AC50 [2],cell number change [%]
COc1ccccc1C(=O)N/N=C(\C)CC(=O)Nc1ccccc1NC(C)=O,,,-5.84
O=c1c2ccccc2ncn1-c1ccccc1F,,"0.0146 µM [rising, full curve, poor fit]",9.79
C=CCc1cc(C=O)cc(OCC)c1OCc1ccc(Cl)cc1,,"0.92 µM [rising, partial curve]",4.29
COc1ccc(CNC(=O)C/C(C)=N/NC(=O)Cc2ccc(OC)cc2)cc1,"0.13 µM [falling, full curve, poor fit]",,-40.6
Cc1c(C(=O)OCc2ccccc2)nnn1-c1nonc1N,"6.51 µM [falling, single point]",,-4.67
Cc1ccc(-c2ccc(C(=O)NCc3ccc(Cl)cc3)o2)c2ccccc12,"0.058 µM [rising, full curve, poor fit]","0.058 µM [rising, full curve, poor fit]",10.4
COc1ccc2nc(SCCOC(=O)Nc3ccc(Cl)cc3)nc(C)c2c1,"4.11 µM [rising, single point]",,
O=C(O)c1ccc2c(c1)-c1nc3ccccc3n1C2=O,"0.164 µM [rising, full curve, poor fit]","2.91 µM [falling, partial curve]",-2.36
CCOC(=O)N1CCN(Cc2nc(N)nc(Nc3ccc(Oc4ccccc4)cc3)n2)CC1,"0.58 µM [rising, single point]","18.4 µM [rising, single point]",
O=C(COc1ccc(S(=O)(=O)N2CCCCC2)cc1Cl)N1CCCC1,,"2.31 µM [rising, single point]",-0.84
Cc1csc(SCC(=O)NC(=O)NC(C)C)n1,"0.058 µM [rising, full curve, poor fit]",,8.55
CC(C)CC(=O)NC(Nc1ccccc1F)C(Cl)(Cl)Cl (stereo not given),,"32.6 µM [falling, partial curve]",-22.5
S=c1[nH]c(-c2ccccc2)cn1/N=C/c1cccs1,"2.91 µM [falling, full curve]","4.61 µM [falling, full curve]",-43.9
CN(C)CCC1c2ccc(Cl)cc2CCc2cccnc21 (stereo not given) (tested in a mixture with another compound),,"2.59 µM [rising, partial curve, poor fit]",6.16
CCCCn1c(N)c(N(CC)C(=O)c2cc(CC)c(C)s2)c(=O)[nH]c1=O,,,-5.22
O=S(=O)(c1cccs1)N1CCN(CC(O)COc2cccc(Br)c2)CC1 (stereo not given),"20.6 µM [rising, single point]",,39.2
COc1ccc(OC)c(C2NC(=O)NC(C)=C2C(=O)OC2CCCCC2)c1 (stereo not given),"0.326 µM [rising, full curve, poor fit]","1.3 µM [rising, full curve]",-6.93
COc1cccc(C(=O)OC2CCCN(C)C2)c1 (stereo not given),,"25.9 µM [falling, partial curve]",
CCCn1ncc2c(Nc3ccc(C)c(C)c3)ncnc21,,"3.26 µM [falling, partial curve]",7.66
